The list is a part of this screen's results and no random one: it is rich in T/C values a quarter to a half above the control, in often repeated tests (any T/C) and in doses without a T/C. Other doses and runs of a compound stand elsewhere. T/C gives the treated animals as a percentage of the vehicle group. Some doses have a count of surviving animals in place of a T/C: the source holds a T/C of zero for them, seemingly a mark for toxic or unscored doses. Some doses without a T/C left all or most animals alive at the check, yet need not have been tolerated: the source hardly ever lists a survival T/C far under the control, and the zero likely stands for such cases as well. Counts of survivors are from the toxicity check (mostly the fifth day) where no day follows; animals may have died later. Schedule codes are those of the source, taken here to give the interval after Q, in days (D) or hours (H), and the number of doses after X. Some doses were run more than once; the results are listed from low to high. For survival time, the PubChem record calls one and a half times the control and up active, and a quarter to a half above the control has no call in these data; cut-offs in other NCI protocols can differ. Some T/C values carry the count of animals alive at the toxicity check (mostly the fifth day); without a count, all were alive then.
System: BDF1 mice, P388 leukemia ip, median survival T/C
Assay: NCI In Vivo Anticancer Drug Screen. Data for tumor model P388 Leukemia (intraperitoneal) in B6D2F1 (BDF1) mice
Conditions: T/C endpoint: median survival time, higher T/C = longer survival
In short: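 Mice carrying the transplantable tumour receive compound or vehicle. Survival is followed in each arm, and the treated measure is divided by the vehicle measure.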

[1] = dose: 200.0 mg/kg/injection, schedule: Q01DX009 (ip), vehicle: water
[2] = dose: 50.0 mg/kg/injection, schedule: Q01DX009 (ip), vehicle: saline with Tween-80
[3] = dose: 200.0 mg/kg/injection, schedule: Q01DX009 (ip), vehicle: saline with Tween-80
[4] = dose: 300.0 mg/kg/injection, schedule: Q01DX009 (ip), vehicle: saline
[5] = dose: 400.0 mg/kg/injection, schedule: Q01DX009 (ip), vehicle: Klucel (hydroxypropylcellulose) (HPC)
[6] = dose: 400.0 mg/kg/injection, schedule: Q04DX003 (ip), vehicle: saline

In the case of `c1ccc(C[P+](c2ccccc2)(c2ccccc2)c2ccccc2)cc1`, the survivor count (dose: 12.5 mg/kg/injection, schedule: Q01DX009 (ip), vehicle: Klucel (hydroxypropylcellulose) (HPC)) is reported as 3 of 6.

With `COc1ccc(/C=C/C(=O)c2ccccc2)cc1OC` the T/C [1] was 128 % of control [5 of 6 alive] and the T/C (dose: 300.0 mg/kg/injection, schedule: Q01DX006 (ip), vehicle: water) was 125 % of control.

With `CCCCN(C)C(=S)N/N=C(\C)c1ccccn1` the survivor count [2] was 3 of 6, the survivor count (dose: 100.0 mg/kg/injection, schedule: Q01DX009 (ip), vehicle: saline with Tween-80) was 0 of 6 and the survivor count [3] was 0 of 6.

In the case of `CCc1c2cc(OC)c(OC)cc2cc2c3cc(OC)c(OC)cc3cc[n+]12` (tested in a mixture with another compound), the T/C (dose: 22.0 mg/kg/injection, schedule: Q04DX003 (ip), vehicle: saline) is reported as 127 % of control, the T/C (dose: 33.0 mg/kg/injection, schedule: Q04DX003 (ip), vehicle: saline) is reported as 145 % of control and the T/C (dose: 44.0 mg/kg/injection, schedule: Q04DX003 (ip), vehicle: saline) is reported as 133 % of control. For the same molecule, the T/C (dose: 66.0 mg/kg/injection, schedule: Q04DX003 (ip), vehicle: saline) was 141 % of control.

`CCOC(N)=O` was tested, and the survivor count (dose: 125.0 mg/kg/injection, schedule: Q01DX010 (ip), vehicle: saline) was 6 of 6, the T/C (dose: 250.0 mg/kg/injection, schedule: Q01DX010 (ip), vehicle: saline) was 126 % of control and the survivor count (dose: 500.0 mg/kg/injection, schedule: Q01DX010 (ip), vehicle: saline) was 6 of 6. For the same molecule, the survivor count (dose: 1000.0 mg/kg/injection, schedule: Q01DX010 (ip), vehicle: saline) was 6 of 6.

With `CC(=O)Oc1cc(-c2ccccc2)c(OC(C)=O)cc1-c1ccccc1` the survivor count [1] was 2 of 6.

For `Clc1nn2nnnc2c2ccccc12`, the survivor count (dose: 18.75 mg/kg/injection, schedule: Q01DX009 (ip), vehicle: saline with Tween-80) was 7 of 7, the T/C (dose: 40.0 mg/kg/injection, schedule: Q01DX009 (ip), vehicle: saline with Tween-80) was 127 % of control [5 of 7 alive] and the survivor count (dose: 75.0 mg/kg/injection, schedule: Q01DX009 (ip), vehicle: saline with Tween-80) was 3 of 7.

For `Nc1ccc(N=Nc2ccccc2)c(N)c1`, the T/C (dose: 130.0 mg/kg/injection, schedule: Q01DX009 (ip), vehicle: saline) was 144 % of control, the T/C (dose: 200.0 mg/kg/injection, schedule: Q01DX009 (ip), vehicle: saline) was 135 and 138 % of control and the survivor count (dose: 300.0 mg/kg/injection, schedule: Q01DX009 (ip), vehicle: saline with Tween-80) was 1 of 6. The T/C [4] was 144 % of control [5 of 6 alive] and the survivor count [5] was 3 of 6.

With `CC(=O)Nc1ccc(NC(=O)c2ccc([As](O)O)cc2)cc1` the T/C (dose: 100.0 mg/kg/injection, schedule: Q01DX009 (ip), vehicle: Klucel (hydroxypropylcellulose) (HPC)) was 145 % of control and the survivor count [5] was 2 of 6.

For `Cn1c(=O)c2[nH]c(CN(CCCl)CCCl)nc2n(C)c1=O`, the T/C (dose: 1.6 mg/kg/injection, schedule: Q01DX009 (ip), vehicle: saline with Tween-80) was 146 % of control, the T/C (dose: 3.0 mg/kg/injection, schedule: Q04DX003 (ip), vehicle: saline with Tween-80) was 133 % of control and the T/C (dose: 18.7 mg/kg/injection, schedule: Q01DX009 (ip), vehicle: saline with Tween-80) was 140 % of control. The survivor count (dose: 100.0 mg/kg/injection, schedule: Q04DX003 (ip), vehicle: saline with Tween-80) was 6 of 6, the survivor count (dose: 200.0 mg/kg/injection, schedule: Q04DX003 (ip), vehicle: saline with Tween-80) was 0 of 6 and the survivor count (dose: 400.0 mg/kg/injection, schedule: Q04DX003 (ip), vehicle: saline with Tween-80) was 0 of 6.

With `CC1=CC2C(O)(CC(CO)=CC3C4C(C)(C)C4(OC(=O)c4ccccc4)C(OC(=O)c4ccccc4)C(C)C32O)C1=O` (configuration not stated) the survivor count (dose: 6.2 micrograms/kg/injection, schedule: Q01DX009 (ip), vehicle: saline with Tween-80) was 4 of 4, the T/C (dose: 25.0 micrograms/kg/injection, schedule: Q01DX009 (ip), vehicle: saline with Tween-80) was 126 % of control and the T/C (dose: 100.0 micrograms/kg/injection, schedule: Q01DX009 (ip), vehicle: saline with Tween-80) was 126 % of control. The T/C (dose: 400.0 micrograms/kg/injection, schedule: Q01DX009 (ip), vehicle: gum acacia) was 139 % of control.

For `O=[N+]([O-])c1ccc(Oc2cc(Cl)c(Cl)cc2Cl)c([N+](=O)[O-])c1`, the survivor count (dose: 100.0 mg/kg/injection, schedule: Q01DX009 (ip), vehicle: saline sonified) was 6 of 6.

For `CCN=C=NCCCN(C)C`, the T/C (dose: 53.0 mg/kg/injection, schedule: Q04DX003 (ip), vehicle: saline) was 129 % of control, the T/C (dose: 80.0 mg/kg/injection, schedule: Q04DX003 (ip), vehicle: saline) was 141 % of control [5 of 6 alive] and the survivor count (dose: 120.0 mg/kg/injection, schedule: Q01DX009 (ip), vehicle: saline) was 4 of 6. For the same molecule, the survivor count (dose: 120.0 mg/kg/injection, schedule: Q04DX003 (ip), vehicle: saline) was 3 of 6.

With `COC(=O)/C=C\SC(=S)C1CCCC1=NC1CCCCC1` (configuration not stated) the survivor count [3] was 6 of 6.

With `NC(=O)NN=C1COC(c2ccccc2)OC1` (configuration not stated) the survivor count [4] was 0 of 6 and the survivor count [6] was 1 of 6.

For `COc1cccc2c1C(=O)c1c(O)c3c(c(O)c1C2=O)C[C@@](O)(C(C)=O)C[C@@H]3OC1CC(NC(C)=O)C(O)C(C)O1` (some centres not stated), the T/C (dose: 2.5 mg/kg/injection, schedule: Q04DX003 (ip), vehicle: saline) was 131 % of control, the T/C (dose: 5.0 mg/kg/injection, schedule: Q04DX003 (ip), vehicle: saline) was 140 % of control and the T/C (dose: 5.56 mg/kg/injection, schedule: Q01DX009 (ip), vehicle: saline) was 133 % of control. The T/C (dose: 8.3 mg/kg/injection, schedule: Q04DX003 (ip), vehicle: saline) was 127 % of control, the T/C (dose: 8.33 mg/kg/injection, schedule: Q01DX009 (ip), vehicle: saline) was 137 % of control and the T/C (dose: 12.0 mg/kg/injection, schedule: Q04DX003 (ip), vehicle: saline) was 145 % of control. The T/C (dose: 18.7 mg/kg/injection, schedule: Q01DX009 (ip), vehicle: saline) was 125 % of control, the T/C (dose: 100.0 mg/kg/injection, schedule: Q04DX003 (ip), vehicle: saline sonified) was 125 % of control and the survivor count [1] was 7 of 8. For the same molecule, the T/C (dose: 200.0 mg/kg/injection, schedule: Q04DX003 (ip), vehicle: saline sonified) was 130 % of control and the T/C (dose: 400.0 mg/kg/injection, schedule: Q04DX003 (ip), vehicle: saline sonified) was 140 % of control.

For `NC(=S)N/N=C/c1ccc(N)cn1`, the T/C (dose: 3.13 mg/kg/injection, schedule: Q01DX009 (ip), vehicle: saline with Tween-80) was 148 % of control [5 of 6 alive], the survivor count (dose: 25.0 mg/kg/injection, schedule: Q01DX009 (ip), vehicle: saline with Tween-80) was 4 of 6 and 6 of 6 and the survivor count [2] was 0 of 6.

In the case of `COc1ccc(CC2C(=O)NC(C)C(=O)N(C)C3Cc4ccc(cc4)Oc4cc(ccc4O)CC(C(=O)NC(C)C(=O)NC(C)C(=O)N2C)N(C)C3=O)cc1` (configuration not stated), the T/C (dose: 1.56 mg/kg/injection, schedule: Q04DX003 (ip), vehicle: other) is reported as 127 % of control, the T/C (dose: 2.59 mg/kg/injection, schedule: Q04DX003 (ip), vehicle: other) is reported as 145 % of control and the survivor count (dose: 12.0 mg/kg/injection, schedule: Q04DX003 (ip), vehicle: other) is reported as 5 of 8. For the same molecule, the survivor count (dose: 20.0 mg/kg/injection, schedule: Q04DX003 (ip), vehicle: other) was 4 of 8.

With `C[n+]1ccc(Nc2ccc(NC(=O)c3ccc(C(=O)Nc4ccc(Nc5cc[n+](C)c(N)n5)cc4)cc3)cc2)nc1N` the survivor count [6] was 3 of 6.
